Measurements reported in paper PMC8112867.
These are yes or no findings as the source states them, for the method shown. Binding seen in cells or lysates may run through a third protein. Some results given as binding are weak or reduced against the parent protein; the word gives no strength.

Sequences of proteins named here, by UniProt entry; tags and fusion partners are left off.
UniProt Q8R3S6: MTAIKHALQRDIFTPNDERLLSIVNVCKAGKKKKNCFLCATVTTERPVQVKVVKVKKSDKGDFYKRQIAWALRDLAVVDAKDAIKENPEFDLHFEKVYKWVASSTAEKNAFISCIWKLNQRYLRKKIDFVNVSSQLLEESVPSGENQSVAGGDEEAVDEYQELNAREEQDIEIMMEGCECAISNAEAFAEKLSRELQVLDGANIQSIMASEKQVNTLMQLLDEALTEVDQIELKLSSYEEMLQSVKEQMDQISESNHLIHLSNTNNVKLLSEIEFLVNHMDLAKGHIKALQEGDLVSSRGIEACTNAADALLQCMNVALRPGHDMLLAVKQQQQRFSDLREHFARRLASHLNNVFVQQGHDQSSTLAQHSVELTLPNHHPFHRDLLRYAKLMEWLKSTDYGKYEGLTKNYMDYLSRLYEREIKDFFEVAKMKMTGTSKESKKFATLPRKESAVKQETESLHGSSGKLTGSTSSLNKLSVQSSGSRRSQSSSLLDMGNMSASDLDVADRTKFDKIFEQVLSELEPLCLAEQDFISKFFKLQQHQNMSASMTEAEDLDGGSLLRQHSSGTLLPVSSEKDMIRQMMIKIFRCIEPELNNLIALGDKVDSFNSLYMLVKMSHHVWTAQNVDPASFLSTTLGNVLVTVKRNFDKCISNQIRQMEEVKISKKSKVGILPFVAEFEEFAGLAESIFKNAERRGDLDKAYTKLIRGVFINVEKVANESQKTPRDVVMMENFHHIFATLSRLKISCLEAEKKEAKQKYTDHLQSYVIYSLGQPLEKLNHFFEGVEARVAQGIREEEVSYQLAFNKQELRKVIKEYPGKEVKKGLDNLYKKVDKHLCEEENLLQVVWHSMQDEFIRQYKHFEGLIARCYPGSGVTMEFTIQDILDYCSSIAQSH

Molecular target: T1, endogenous SNAP23 (mouse (endogenous in testis)) (UniProt O09044)
T1 sequence: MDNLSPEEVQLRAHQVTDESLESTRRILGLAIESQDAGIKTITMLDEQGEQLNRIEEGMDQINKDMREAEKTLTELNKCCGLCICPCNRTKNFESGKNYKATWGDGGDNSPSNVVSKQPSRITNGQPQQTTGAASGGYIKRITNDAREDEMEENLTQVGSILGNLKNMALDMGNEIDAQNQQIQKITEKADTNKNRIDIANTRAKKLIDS
Experiment: co-IP; adult Exoc1 PA-N/PA-N mouse testis lysate (1.5 mg total protein; 20 mM Tris-HCl, 150 mM NaCl, 1 mM EDTA, 1% triton X-100); anti-SNAP23 antibody or normal rabbit IgG 1 hr at 4°C, Protein G magnetic beads; PA-EXOC1 detected by anti-PA-tag blot

“PA-tagged EXOC1 (Exoc1 PA-N knock-in) (from UniProt Q8R3S6 1-894)” was tested, and the binding was “binds”.
